For some assays here: A negative result means that nothing was seen under these conditions. Construct, isoform or probe ends are uncertain for at least one entry.
Assays:
Assay in all cases: activity in cells
RBMS2 (Homo sapiens) = RBMS2 (Homo sapiens) (UniProt Q15434); conditions: protein in cells, protein details: FLAG
RBMS3 (Homo sapiens) = RBMS3 (Homo sapiens) (UniProt Q6XE24); conditions: luciferase increased, HEK293T; protein in cells
RBMS1 (Homo sapiens) = RBMS1 (Homo sapiens) (UniProt P29558); conditions: luciferase increased, HEK293T; protein in cells

By UniProt entry, the sequences of proteins in these tests, tags left out. Where a name states a change or a piece, a line headed by the entry shows the natural chain unless it says otherwise.
UniProt Q15434: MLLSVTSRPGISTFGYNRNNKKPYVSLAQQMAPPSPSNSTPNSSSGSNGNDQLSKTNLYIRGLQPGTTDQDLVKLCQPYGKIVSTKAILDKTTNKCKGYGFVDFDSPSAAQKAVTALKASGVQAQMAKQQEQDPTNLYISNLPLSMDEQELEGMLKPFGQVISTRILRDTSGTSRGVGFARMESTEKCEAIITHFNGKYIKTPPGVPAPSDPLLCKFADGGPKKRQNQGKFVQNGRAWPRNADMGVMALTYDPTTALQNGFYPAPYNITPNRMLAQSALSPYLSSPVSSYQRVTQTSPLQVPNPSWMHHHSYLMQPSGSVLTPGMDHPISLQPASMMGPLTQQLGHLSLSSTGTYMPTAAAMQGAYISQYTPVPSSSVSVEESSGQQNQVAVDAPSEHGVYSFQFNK
UniProt Q6XE24: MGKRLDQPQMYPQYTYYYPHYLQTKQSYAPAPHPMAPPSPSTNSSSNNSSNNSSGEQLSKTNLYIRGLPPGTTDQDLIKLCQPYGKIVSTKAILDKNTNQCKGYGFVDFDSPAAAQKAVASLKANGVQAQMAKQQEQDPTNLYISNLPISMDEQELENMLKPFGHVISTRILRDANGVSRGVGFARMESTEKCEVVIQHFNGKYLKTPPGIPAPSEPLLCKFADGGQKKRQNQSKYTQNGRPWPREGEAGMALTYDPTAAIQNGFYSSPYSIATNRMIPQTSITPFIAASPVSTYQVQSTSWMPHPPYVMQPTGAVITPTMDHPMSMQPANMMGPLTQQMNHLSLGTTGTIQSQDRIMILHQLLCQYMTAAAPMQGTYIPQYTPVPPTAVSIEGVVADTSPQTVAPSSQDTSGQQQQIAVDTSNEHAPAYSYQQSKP
UniProt P29558: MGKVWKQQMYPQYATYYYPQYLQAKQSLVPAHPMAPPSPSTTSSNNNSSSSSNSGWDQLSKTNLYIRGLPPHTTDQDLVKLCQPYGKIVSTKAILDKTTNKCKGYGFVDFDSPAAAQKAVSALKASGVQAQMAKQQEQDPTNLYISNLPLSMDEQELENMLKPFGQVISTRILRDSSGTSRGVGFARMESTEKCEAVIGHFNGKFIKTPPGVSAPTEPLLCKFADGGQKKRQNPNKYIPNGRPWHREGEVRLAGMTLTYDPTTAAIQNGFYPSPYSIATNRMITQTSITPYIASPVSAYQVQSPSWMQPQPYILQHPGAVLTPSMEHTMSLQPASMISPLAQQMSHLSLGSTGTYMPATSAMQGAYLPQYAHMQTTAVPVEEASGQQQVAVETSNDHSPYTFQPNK

| Sequence | functional effect (RBMS2 (Homo sapiens); luciferase increased, HEK293T) | also measured |
| --- | --- | --- |
| ACAUUACUAAUUUGAAUGGAAAACACAUGGUGUGAGUCCAAAGAAGGUGUUUUCCUGAAGAACUGUCUAUUUUCUCAGUCAUUUUUAACCUCUAGAGUCACUGAUACACAGAAUAUAAUCUUAUUUAUACCUCAGUUUGCAUAUUUUUUUACUAUUUAGAAUGUAGCCCUUUUUGUACUGAUAUAAUUUAGUUCCACAAAUGGUGGGUACAAAAAGUCAAGUUUGUGGCUUAUGGAUUCAUAUAGGCCAGAGUUGCAAAGAUCUUUUCCAGAGUAUGCAACUCUGACGUUGAUCCCAGAGAGCAGCUUCAGUGACAAACAUAUCCUUUCAAGACAGAAAGAGACAGGAGACAUGAGUCUUUGCCGGAGGAAAAGCAGCUCAAGAACACAUGUGCAGUCACUGGUGUCACCCUGGAUAGGCAAGGGAUAACUCUUCUAACACAAAAUAAGUGUUUUAUGUUUGGAAUAAAGUCAACCUUGUUUCUACUGUUUUAUACACUUUCAAAAAAAAAAAAAAAAAAAAAAAAAA [MMP1 3'UTR] | active | – |
| AUGCUACCUGGGUUUCCAGGGCACACCUAGACAAACAAGGGAGAAGAGUGUCAGAAUCAGAAUCAUGGAGAAAAUGGGCGGGGGUGGUGUGGGUGAUGGGACUCAUUGUAGAAAGGAAGCCUUGCUCAUUCUUGAGGAGCAUUAAGGUAUUUCGAAACUGCCAAGGGUGCUGGUGCGGAUGGACACUAAUGCAGCCACGAUUGGAGAAUACUUUGCUUCAUAGUAUUGGAGCACAUGUUACUGCUUCAUUUUGGAGCUUGUGGAGUUGAUGACUUUCUGUUUUCUGUUUGUAAAUUAUUUGCUAAGCAUAUUUUCUCUAGGCUUUUUUCCUUUUGGGGUUCUACAGUCGUAAAAGAGAUAAUAAGAUUAGUUGGACAGUUUAAAGCUUUUAUUCGUCCUUUGACAAAAGUAAAUGGGAGGGCAUUCCAUCCCUUCCUGAAGGGGGACACUCCAUGAGUGUCUGUGAGAGGCAGCUAUCUGCACUCUAAACUGCAAACAGAAAUCAGGUGUUUUAAGACUGAAUGUUUUAUUUAUCAAAAUGUAGCUUUUGGGGAGGGAGGGGAAAUGUAAUACUGGAAUAAUUUGUAAAUGAUUUUAAUUUUAUAUUCAGUGAAAAGAUUUUAUUUAUGGAAUUAACCAUUUAAUAAAGAAAUAUUUACCUAAUAUCUGAGUGUAUGCCAUUCGGUAUUUUUAGAGGUGCUCCAAAGUCAUUAGGAACAACCUAGCUCACGUACUCAAUUAUUCAAACAGGACUUAUUGGGAUACAGCAGUGAAUUAAGCUAUUAAAAUAAGAUAAUGAUUGCUUUUAUACCUUCAGUAGAGAAAAGUCUUUGCAUAUAAAGUAAUGUUUAAAAAACAUGUAUUGAACACGACAUUGUAUGAAGCACAAUAAAGAUUCUGAAGCUAAAUUUGUGAUUU [CYR61 3'UTR] | active | – |
| CAUGGGCACCUCAGAUUGUUGUUGUUAAUGGGCAUUCCUUCUUCUGGUCAGAAACCUGUCCACUGGGCACAGAACUUAUGUUGUUCUCUAUGGAGAACUAAAAGUAUGAGCGUUAGGACACUAUUUUAAUUAUUUUUAAUUUAUUAAUAUUUAAAUAUGUGAAGCUGAGUUAAUUUAUGUAAGUCAUAUUUAUAUUUUUAAGAAGUACCACUUGAAACAUUUUAUGUAUUAGUUUUGAAAUAAUAAUGGAAAGUGGCUAUGCAGUUUG [IL-6 3'UTR (NM_000600.4 755-1023)] | active | functional effect (RBMS3 (Homo sapiens)): active; functional effect (RBMS1 (Homo sapiens)): active |
| CAUGGGCACCUCAGAUUGUUGUUGUUAAUGGGCAUUCCUUCUUCUGGUCAGAAACCUGUCCACUGGGCACAGAACUUAUGUUGUUCUCUAUGGAGAACUAAAAGUAUGAGCGUUAGGACACUAUUUUAAUUAUUUUUAAUUUAUUAAUAUUUAAAUAUGUGAAGCUGAGUUAAUUUAUGUAAGUCAUAUUUAUAUUUUUAAGAAGUACCACUUGAAACAUUUUAUGUAUUAGUUUUGAAAUAAUAAUGGAAAGUGGCUAUGCAGUUUGAAUAUCCUUUGUUUCAGAGCCAGAUCAUUUCUUGGAAAGUGUAGGCUUACCUCAAAUAAAUGGCUAACUUAUACAUAUUUUUAAAGAAAUAUUUAUAUUGUAUUUAUAUAAUGUAUAAAUGGUUUUUAUACCAAUAAAUGGCAUUUUAAAAAAUUCAGCAAAAAAAAAAAAAAAAAAA [IL-6 3'UTR reporter] | active | – |
| GGAUCCACAAGUCCUUGUUCCACUGUGCCUUGGUUUCUCCUUUAUUUCUAAGUGGAAAAAGUAUUAGCCACCAUCUUACCUCACAGUGAUGUUGUGAGGACAUGUGGAAGCACUUUAAGUUUUUUCAUCAUAACAUAAAUUAUUUUCAAGUGUAACUUAUUAACCUAUUUAUUAUUUAUGUAUUUAUUUAAGCAUCAAAUAUUUGUGCAAGAAUUUGGAAAAAUAGAAGAUGAAUCAUUGAUUGAAUAGUUAUAAAGAUGUUAUAGUAAAUUUAUUUUAUUUUAGAUAUUAAAUGAUGUUUUAUUAGAUAAAUUUCAAUCAGGGUUUUUAGAUUAAACAAACAAACAAUUGGGUACC [IL-8 3'UTR (NM_000584.3 936-1293)] | – | functional effect (RBMS3 (Homo sapiens)): active; functional effect (RBMS1 (Homo sapiens)): active |
| GGUCCCCAGGGAGGAAACGGGCACCACCCGCUUUCUUGCUGGUUGUCAUUUUUGCAGUAGAGUCAUCUCCAUCAGCUGUAAGAAGAGACUGGGAAGAUAGGCUCUGCACAGAUGGAUUUGCCUGUGCCACCCACCAGGGCGAACGACAAUAGCUUUACCCUCAGGCAUAGGCCUGGGUGCUGGCUGCCCAGACCCCUCUGGCCAGGAUGGAGGGGUGGUCCUGACUCAACAUGUUACUGACCAGCAACUUGUCUUUUUCUGGACUGAAGCCUGCAGGAGUUAAAAAGGGCAGGGCAUCUCCUGUGCAUGGGUGAAGGGAGAGCCAGCUCCCCCGACGGUGGGCAUUUGUGAGGCCCAUGGUUGAGAAAUGAAUAAUUUCCCAAUUAGGAAGUGUAACAGCUGAGGUCUCUUGAGGGAGCUUAGCCAAUGUGGGAGCAGCGGUUUGGGGAGCAGAGACACUAACGACUUCAGGGCAGGGCUCUGAUAUUCCAUGAAUGUAUCAGGAAAUAUAUAUGUGUGUGUAUGUUUGCACACUUGUGUGUGGGCUGUGAGUGUAAGUGUGAGUAAGAGCUGGUGUCUGAUUGUUAAGUCUAAAUAUUUCCUUAAACUGUGUGGACUGUGAUGCCACACAGAGUGGUCUUUCUGGAGAGGUUAUAGGUCACUCCUGGGGCCUCUUGGGUCCCCCACGUGACAGUGCCUGGGAAUGUAUUAUUCUGCAGCAUGACCUGUGACCAGCACUGUCUCAGUUUCACUUUCACAUAGAUGUCCCUUUCUUGGCCAGUUAUCCCUUCCUUUUAGCCUAGUUCAUCCAAUCCUCACUGGGUGGGGUGAGGACCACUCCUGUACACUGAAUAUUUAUAUUUCACUAUUUUUAUUUAUAUUUUUGUAAUUUUA [PLAU 3'UTR] | active | – |
| GUACUGCCCGUGCAAAUCCCACAACACUGAAUGCAAAGUAGCAAUUUCCAUAGUCACAGUUAGGUAGCUUUAGGGCAAUAUUGCCAUGGUUUUACUCAUGUGCAGGUUUUGAAAAUGUACAAUAUGUAUAAUUUUUAAAAUGUUUUAUUAUUUUGAAAAUAAUGUUGUAAUUCAUGCCAGGGACUGACAAAAGACUUGAGACAGGAUGGUUACUCUUGUCAGCUAAGGUCACAUUGUGCCUUUUUGACCUUUUCUUCCUGGACUAUUGAAAUCAAGCUUAUUGGAUUAAGUGAUAUUUCUAUAGCGAUUGAAAGGGCAAUAGUUAAAGUAAUGAGCAUGAUGAGAGUUUCUGUUAAUCAUGUAUUAAAACUGAUUUUUAGCUUUACAAAUAUGUCAGUUUGCAGUUAUGCAGAAUCCAAAGUAAAUGUCCUGCUAGCUAGUUAAGGAUUGUUUUAAAUCUGUUAUUUUGCUAUUUGCCUGUUAGACAUGACUGAUGACAUAUCUGAAAGACAAGUAUGUUGAGAGUUGCUGGUGUAAAAUACGUUUGAAAUAGUUGAUCUACAAAGGCCAUGGGAAAAAUUCAGAGAGUUAGGAAGGAAAAACCAAUAGCUUUAAAACCUGUGUGCCAUUUUAAGAGUUACUUAAUGUUUGGUAACUUUUAUGCCUUCACUUUACAAAUUCAAGCCUUAGAUAAAAGAACCGAGCAAUUUUCUGCUAAAAAGUCCUUGAUUUAGCACUAUUUACAUACAGGCCAUACUUUACAAAGUAUUUGCUGAAUGGGGACCUUUUGAGUUGAAUUUAUUUUAUUAUUUUUAUUUUGUUUAAUGUCUGGUGCUUUCUGUCACCUCUUCUAAUCUUUUAAUGUAUUUGUUUGCAAUUUUGGGGUAAGACUUUUUUUAUGAGUACUUUUUCUUUGAAGUUUUAGCGGUCAAUUUGCCUUUUUAAUGAACAUGUGAAGUUAUACUGUGGCUAUGCAACAGCUCUCACCUACGCGAGUCUUACUUUGAGUUAGUGCCAUAACAGACCACUGUAUGUUUACUUCUCACCAUUUGAGUUGCCCAUCUUGUUUCACACUAGUCACAUUCUUGUUUUAAGUGCCUUUAGUUUUAACAGUUCACUUUUUACAGUGCUAUUUACUGAAGUUAUUUAUUAAAUAUGCCUAAAAUACUUAAAUCGGAUGUCUUGACUCUGAUGUAUUUUAUCAGGUUGUGUGCAUGAAAUUUUUAUAGAUUAAAGAAGUUGAGGAAAAGCAAAAAAAAAA [ITGB1 3'UTR] | active | – |
| UAUUUUAAUUAUUUUUAAGGGAUUAAUAGGGAAAUAUGUGAAGCUGAGUUAAGGGAUGUAAGUCAUAGGGA [IL-6 3'UTR ARE mutant] | – | functional effect (RBMS2 (Homo sapiens); no luciferase increase, U to G in ARE, variant of IL-6 3'UTR reporter): not active |

Source: US20200355672
